Measurements reported in PubChem BioAssay AID743121 (NCATS, 2013)
The deposit covers about 26,000 reagents; this is a random part of them. Over the whole deposit, 167 (0.63%) got an active call. 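Calls are per gene from RSA p-values that are not deposited; an individual active-marked siRNA can sensitise only weakly.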 Reagents against one gene are numbered here. Further read-outs or replicates are left out here.

Aim: 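Partners whose loss is lethal together with topoisomerase I blockade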 (primary screen)
System: MDA-MB-231 cells, a human breast cancer line
Reagents: single siRNA against human genes, 20 nM siRNA (0.8 pmol per well)
Time to read-out: 120 h (drug added 48 h after transfection, read 72 h later)
Conditions: camptothecin 20 nM (about EC30) for 72 h; vehicle 0.1% DMSO in parallel plates
Read-out: 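CellTiter-Glo ATP signal, scaled to control siRNA as percent viability; sensitisation given as log2 of untreated divided by camptothecin-treated viability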
Scale: log2 vehicle/camptothecin viability: higher = stronger sensitisation to camptothecin; viability with camptothecin: higher = more viable cells
Call rule: 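Each gene scored by redundant siRNA activity (RSA) over its individual siRNA ratios; a gene is called active at p < 0.001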

no.	gene	reagent	log2 vehicle/camptothecin viability	viability with camptothecin (% of control)	Outcome
1	MSH4 (GeneID 4438)	1	-0.192	80.5	inactive
2	MSH4 (GeneID 4438)	2	0.0126	52.3	inactive
3	MSH4 (GeneID 4438)	3	0.244	30.3	inactive
4	MSH4 (GeneID 4438)	4	-0.649	88.2	inactive
5	MAP2K7 (GeneID 5609)	1	-0.54	49.1	inactive
6	MAP2K7 (GeneID 5609)	2	-0.37	103	inactive
7	MAP2K7 (GeneID 5609)	3	-0.309	72.1	inactive
8	MAP2K7 (GeneID 5609)	4	-0.532	62.8	inactive
9	LNPEP (GeneID 4012)	1	-0.108	65.7	inactive
10	LNPEP (GeneID 4012)	2	-0.171	110	inactive
11	LNPEP (GeneID 4012)	3	-0.532	65.9	inactive
12	LNPEP (GeneID 4012)	4	-0.11	66	inactive
13	AP1S2 (GeneID 8905)	1	0.0111	56.9	inactive
14	AP1S2 (GeneID 8905)	2	-0.34	71.6	inactive
15	AP1S2 (GeneID 8905)	3	-0.177	110	inactive
16	AP1S2 (GeneID 8905)	4	0.0407	92.2	inactive
17	LRWD1 (GeneID 222229)	1	-0.242	98.8	inactive
18	LRWD1 (GeneID 222229)	2	-0.237	49.6	inactive
19	LRWD1 (GeneID 222229)	3	-0.199	92.9	inactive
20	LRWD1 (GeneID 222229)	4	-0.329	76.1	inactive
21	TGM3 (GeneID 7053)	1	-0.384	96.4	inactive
22	TGM3 (GeneID 7053)	2	-0.574	42	inactive
23	TGM3 (GeneID 7053)	3	-0.588	93.4	inactive
24	TGM3 (GeneID 7053)	4	-0.0755	75.6	inactive
25	EXO1 (GeneID 9156)	1	-0.0369	86.4	inactive
26	EXO1 (GeneID 9156)	2	-0.558	55.8	inactive
27	EXO1 (GeneID 9156)	3	-0.399	99.1	inactive
28	GPRASP1 (GeneID 9737)	1	0.921	53.6	inactive
29	GPRASP1 (GeneID 9737)	2	-0.188	58.3	inactive
30	GPRASP1 (GeneID 9737)	3	0.148	71.3	inactive
31	GPRASP1 (GeneID 9737)	4	0.436	49.9	inactive
32	DPP4 (GeneID 1803)	1	-0.218	95.6	inactive
33	DPP4 (GeneID 1803)	2	-0.258	35.1	inactive
34	DPP4 (GeneID 1803)	3	-0.25	156	inactive
35	DPP4 (GeneID 1803)	4	0.118	61.7	inactive
36	CAMK1D (GeneID 57118)	1	-0.469	83.9	inactive
37	CAMK1D (GeneID 57118)	2	0.0561	87	inactive
38	CAMK1D (GeneID 57118)	3	0.159	39.9	inactive
39	CAMK1D (GeneID 57118)	4	0.241	39	inactive
40	ZDHHC17 (GeneID 23390)	1	0.209	83.3	inactive
41	ZDHHC17 (GeneID 23390)	2	0.0416	94.7	inactive
42	ZDHHC17 (GeneID 23390)	3	0.39	76.8	inactive
43	GPR65 (GeneID 8477)	1	-0.255	105	inactive
44	GPR65 (GeneID 8477)	2	-0.226	119	inactive
45	GPR65 (GeneID 8477)	3	0.269	99.4	inactive
46	GPR65 (GeneID 8477)	4	-0.698	71.6	inactive
47	EPHA3 (GeneID 2042)	1	-0.204	104	inactive
48	EPHA3 (GeneID 2042)	2	-0.195	105	inactive
49	EPHA3 (GeneID 2042)	3	-0.587	81.5	inactive
50	EPHA3 (GeneID 2042)	4	0.0294	116	inactive
51	TAS2R4 (GeneID 50832)	1	-0.3	64.1	inactive
52	TAS2R4 (GeneID 50832)	2	-0.499	75	inactive
53	TAS2R4 (GeneID 50832)	3	0.0343	80.1	inactive
54	TAS2R4 (GeneID 50832)	4	-0.348	42.7	inactive
55	UCP1 (GeneID 7350)	1	-0.0928	81.9	inactive
56	UCP1 (GeneID 7350)	2	-0.457	87.8	inactive
57	UCP1 (GeneID 7350)	3	-0.309	77.8	inactive
58	UCP1 (GeneID 7350)	4	-0.272	98	inactive
59	KCNQ4 (GeneID 9132)	1	0.309	68.6	inactive
60	KCNQ4 (GeneID 9132)	2	-0.265	86	inactive
61	KCNQ4 (GeneID 9132)	3	0.352	81.4	inactive
62	KCNQ4 (GeneID 9132)	4	-0.25	83.2	inactive
63	PEX2 (GeneID 5828)	1	-0.194	59.4	inactive
64	PEX2 (GeneID 5828)	2	0.118	87.4	inactive
65	PEX2 (GeneID 5828)	3	-0.505	37.2	inactive
66	DNAJC6 (GeneID 9829)	1	-0.212	55.2	inactive
67	DNAJC6 (GeneID 9829)	2	0.107	54.7	inactive
68	DNAJC6 (GeneID 9829)	3	0.082	35.8	inactive
69	DNAJC6 (GeneID 9829)	4	0.00424	110	inactive
70	TLR9 (GeneID 54106)	1	-0.0515	94.7	inactive
71	TLR9 (GeneID 54106)	2	0.0666	82	inactive
72	TLR9 (GeneID 54106)	3	-0.641	102	inactive
73	TLR9 (GeneID 54106)	4	-0.322	70	inactive
74	BMI1 (GeneID 648)	1	-0.396	31.6	inactive
75	BMI1 (GeneID 648)	2	0.187	46.9	inactive
76	BMI1 (GeneID 648)	3	0.0105	91.7	inactive
77	PLAT (GeneID 5327)	1	-0.132	80.6	inactive
78	PLAT (GeneID 5327)	2	0.228	42.4	inactive
79	PLAT (GeneID 5327)	3	-0.209	85.5	inactive
80	PLAT (GeneID 5327)	4	-0.0722	82.3	inactive
81	SLC6A1 (GeneID 6529)	1	-0.023	89	inactive
82	SLC6A1 (GeneID 6529)	2	-0.0963	100	inactive
83	SLC6A1 (GeneID 6529)	3	0.102	57.1	inactive
84	SLC6A1 (GeneID 6529)	4	-0.186	101	inactive
85	PTP4A3 (GeneID 11156)	1	0.155	80.7	inactive
86	PTP4A3 (GeneID 11156)	2	-0.0746	64.4	inactive
87	PTP4A3 (GeneID 11156)	3	-0.018	24.7	inactive
88	PTP4A3 (GeneID 11156)	4	-0.385	81.4	inactive

5 entries from above in another layout.
{"gene": "DNAJC6 (GeneID 9829)", "reagent": 1, "log2 vehicle/camptothecin viability": -0.212, "viability with camptothecin (% of control)": 55.2, "Outcome": "inactive"}
{"gene": "DNAJC6 (GeneID 9829)", "reagent": 2, "log2 vehicle/camptothecin viability": 0.107, "viability with camptothecin (% of control)": 54.7, "Outcome": "inactive"}
{"gene": "DNAJC6 (GeneID 9829)", "reagent": 3, "log2 vehicle/camptothecin viability": 0.082, "viability with camptothecin (% of control)": 35.8, "Outcome": "inactive"}
{"gene": "DNAJC6 (GeneID 9829)", "reagent": 4, "log2 vehicle/camptothecin viability": 0.00424, "viability with camptothecin (% of control)": 110, "Outcome": "inactive"}
{"gene": "TLR9 (GeneID 54106)", "reagent": 1, "log2 vehicle/camptothecin viability": -0.0515, "viability with camptothecin (% of control)": 94.7, "Outcome": "inactive"}
